Assay results taken from publication PMC6544321.
Results are given in words; binding and its absence hold for the method and conditions named. Some entries that bind do so weakly or less than the wild type.

The chains behind the UniProt entries cited, without tags or fusion partners. Where a name states a change or a piece, a line headed by the entry shows the natural chain unless it says otherwise. Residues count along the entry.
UniProt Q12692, residues 23-119: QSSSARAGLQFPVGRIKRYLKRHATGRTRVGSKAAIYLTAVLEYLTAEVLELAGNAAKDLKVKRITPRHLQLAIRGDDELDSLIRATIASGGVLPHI

Target: H2A.Z (the H2A.Z part of yeast single-chain H2A.Z-H2B) (yeast) (UniProt Q12692)
Assay: crystal structure; Chz1-MC and scZB mixed 1:1, Superdex 200, crystals at 16°C in 0.1 M Bicine (pH 9.0), 2% 1,4-dioxane, 10% PEG 20000; 1.65 Å; both purified

B1: middle and C-terminal region of Chz1 (Chz1 64-153) (domain or fragment, UniProt P40019 64-153)
chain: TVEDSESDMDDAKLDALMGNEGEEEEDDLAEIDTSNIITSGRRTRGKVIDYKKTAEELDKKEPSTGSKDDVGYGEKEEDDEDEEDDDFKE
  binding: binds
